{"sequences": {"note": "Protein sequences, listed by entry. Tags and fused reporters are not part of them. Residues count along the entry.", "UniProt P05067, residues 672-713": "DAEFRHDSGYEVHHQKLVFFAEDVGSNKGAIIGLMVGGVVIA"}, "source": "patent US20120082667A1", "binders": {"B1": {"name": "AL-201 antibody (antibody, IgG2b, V domains shown)", "VH": "QVQLQQPGAELVKPGASVKLSCKASGYTFTSYWMHWVKQRPGQGLEWIGEINPSNGRTNYNEKFKSKATLTVDKSSSTAYMQLSSLTSEDSAVYYCARQGYRHGVFAYWGQGTLVTVSA", "VL": "SIVMTQTPKFLLVSAGDRVTITCKASQSVSNDVAWYQQKPGQSPKLLIYYASNRYTGVPDRFTGSGYGTDFTFTISTVQAEDLAVYFCQQDYSSPTFGAGTKLELK"}}, "target": "synthesized A beta1-42 (UniProt P05067)", "assay": "dot blot, synthesized A beta1-42 spotted, hybridoma supernatant", "note": "No constants are given. Whether binding was seen depends on the method and setting. Some binding calls cover weakened binding; strength is not graded here."}
{"binder": "B1", "values": [{"measurement": "binding", "result": "binds"}]}
